# Results: patent publication US20220389113A1, “BINDING PROTEINS TO CUB DOMAIN-CONTAINING PROTEIN (CDCP1)” (COMMONWEALTH SCIENTIFIC AND INDUSTRIAL RESEARCH ORGANISATION, priority 2019, published 2022)
# At least one structure is not confirmed: it was looked up by name or label, or the drawing left a doubt.
# Tested on: p-CDCP1-Y734 in HEY cells
# Experiment: Western blot of CDCP1-Y734 and Src-Y416 phosphorylation in HEY cells
# Type: cell-based, human
# Conditions: dasatinib 200 nM for 2 h before 10D7
# Description: Cells were biotinylated (4° C., 1 h) with cell-impermeant EZ-link NHS-SS Biotin (1.22 mg/ml; Thermo) then PBS washed and lysed in buffer containing 20 mM HEPES, 150 mM NaCl, 1 mM EDTA, 1% Triton X-100, 1×Complete protease inhibitor cocktail (PIC) and phosphatase inhibitors (2 mM Na3VO4, 10 mM NaF). After centrifugation the supernatant was incubated (15 minutes, 4° C.) with ImmunoPure immobilized streptavidin beads (Thermo). After pelleting, the supernatant containing intracellular proteins was transferred to a separate tube, and the beads washed in lysis buffer containing PIC and phosphatase inhibitors. Lysates and proteins separated by cell surface biotinylation (40 μg/lane) were examined by Western blot analysis as described (He Y, et al., (2016) Oncogene. 35(4):468-78).
# Since Src tyrosine phosphorylation is important in CDCP1-mediated signal transduction (Casar B, et al., (2012) Oncogene. 31(35):3924-38), the inventors next examined this in antibody induced processing of CDCP1. […] Live-cell images of the four cell lines were analysed to determine the distance moved (track length) by individual CDCP1^GFP positive puncta during mAb-induced internalization (FIG. 5C, left). […]
compound,measurement,value
"Cc1nc(Nc2ncc(C(=O)Nc3c(C)cccc3Cl)s2)cc(N2CCN(CCO)CC2)n1 [dasatinib, reference compound]",generation of endogenous p-CDCP1-Y734 induced by 10D7,completely blocked
